Data: article doi:10.1101/2025.06.18.660405 (bioRxiv, 2025)
No constants are given. Whether binding was seen depends on the method and setting. Sequences can lack the tags named with a protein.

T1: GST-GAR1 (human) (UniProt Q9NY12)
T1 sequence: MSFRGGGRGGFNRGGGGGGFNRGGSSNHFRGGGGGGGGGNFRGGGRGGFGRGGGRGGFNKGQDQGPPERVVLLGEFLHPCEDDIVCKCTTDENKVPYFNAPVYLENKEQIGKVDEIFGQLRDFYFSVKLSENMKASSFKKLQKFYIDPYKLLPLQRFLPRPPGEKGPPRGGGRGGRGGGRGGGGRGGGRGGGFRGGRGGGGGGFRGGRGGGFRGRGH


What was measured:
GST-GAR1 (human) = target: T1, GST-GAR1 (human); test: pull-down
MBP-FBLΔIDR (human) = test: pull-down

binding (GST-GAR1 (human))	binding (MBP-FBLΔIDR (human))	Molecule
no binding	–	MBP-FBLΔIDR (human) (domain or fragment)
–	no binding	GST-GAR1 (natural protein, human, UniProt Q9NY12 1-217, looked up) MSFRGGGRGGFNRGGGGGGFNRGGSSNHFRGGGGGGGGGNFRGGGRGGFGRGGGRGGFNKGQDQGPPERVVLLGEFLHPCEDDIVCKCTTDENKVPYFNAPVYLENKEQIGKVDEIFGQLRDFYFSVKLSENMKASSFKKLQKFYIDPYKLLPLQRFLPRPPGEKGPPRGGGRGGRGGGRGGGGRGGGRGGGFRGGRGGGGGGFRGGRGGGFRGRGH
